# In PubChem BioAssay AID1347426 (Functional Genomics Laboratory (NCATS/FGL), 2020):
# The campaign covered roughly 31,000 sequences. About 1,400 (4.5%) were called active.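 The calls were made as follows: active = median seed-adjusted z-score above 1 or below -1; inactive = the rest.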 The list shows a part of the results.
# Assay: Novel Modifiers of Survival Motor Neuron (SMN) Protein: Gene Identification via Genome-wide siRNA Screen;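 also: luminescence tracks full-length SMN protein made from the SMN2 reporter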
# Settings: HEK293T SMN2-luciferase reporter, siRNA knockdown, 72 h; actives lie on both sides
# In short: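 Each of three siRNAs per gene is reverse-transfected (1 pmol) into reporter HEK293T cells whose luciferase output tracks SMN protein level. After 72 h culture, ONE-Glo luminescence is control-normalized, log10-transformed and MAD-standardized; Common Seed Analysis deprioritizes seed-driven hits.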
row,Sequence,median seed-adjusted z-score
1,GAUCGAGAGUGACCGAUUATT against HK1,inactive: -0.129
2,GACUAUUUAUUCCAGCUUUTT against DLX5,inactive: 0.115
3,AGAUCUUGAUUAUUCCAGATT against NR4A3,inactive: -0.205
4,CCUUAGAUCUGAGUCCAUUTT against NOS1,inactive: 0.0195
5,GCAGAUCCAAGGUCAAGUATT against TGM4,inactive: -0.43
6,GAAUAAGAGCACAAGUAAATT against SERPINB13,inactive: 0.0593
7,GGUAAUAGCUUCUACAAGATT against DPP4,inactive: 0.0394
8,CUAUCGAUCGCUACCAGAATT against P2RY12,inactive: 0.143
9,GCAACUACGUGACUCGCUATT against SMUG1,active: -1.38
10,GAUACUUGCUGGAUCUUCATT against 6-Mar,inactive: -0.483
11,AGAUGUUCUUCGCUAAUAATT against DNMT3A,inactive: -0.643
12,GCAGCUAUCGACAACAUGATT against PPIE,inactive: -0.699
13,CAACCUAUCAUAUCUGUUUTT against SLC22A16,inactive: 0.0878
14,AGGCAUUCCUCGGAAGUCATT against SMAD7,inactive: -0.25
15,GCCUCAAGAUGUUUGCAAATT against IMP4,inactive: -0.359
16,GACUUAAGCCGAGUAAAUATT against PGGT1B,inactive: -0.164
17,UACUGGAGAUGUUACUAUUTT against ARL1,inactive: 0.347
18,GCUAGUCUCAAAGCGCAUATT against ZNF236,inactive: 0.683
19,ACUCUUAUGUGAUCAUCAATT against CAPN5,inactive: 0.535
20,GGAUAACUUAGAGAAGCAATT against TRIM55,inactive: -0.483
21,GGUUGUAAGAAGAUAUAUATT against ARHGEF10,inactive: 0.22
22,GUACAUAGAUUCUAGGCAATT against FOXJ3,inactive: -0.155
23,GCAGAGUCCCUUAGACAGATT against PCDHGA1,inactive: -0.319

# Single entries from the entries so far:
# AGAUCUUGAUUAUUCCAGATT against NR4A3 | median seed-adjusted z-score: inactive: -0.205
# GCAACUACGUGACUCGCUATT against SMUG1 | median seed-adjusted z-score: active: -1.38
# GAAUAAGAGCACAAGUAAATT against SERPINB13 | median seed-adjusted z-score: inactive: 0.0593
# GCAGCUAUCGACAACAUGATT against PPIE | median seed-adjusted z-score: inactive: -0.699
# GAUCGAGAGUGACCGAUUATT against HK1 | median seed-adjusted z-score: inactive: -0.129
# GCAGAUCCAAGGUCAAGUATT against TGM4 | median seed-adjusted z-score: inactive: -0.43

# Next part

row,Sequence,median seed-adjusted z-score
1,CAACCACUAUCUCAGUGCATT against BCL2L11,inactive: -0.0521
2,GGUGUACCAGUAUGACAAATT against GPR139,inactive: 0.0111
3,CGAGACCGACCAUCCAUAATT against NEK5,inactive: 0.0403
4,GAAGCAUGCUAUCCACGGATT against MCF2L2,inactive: -0.465
5,CUUCCACCGCUUCUACCAATT against HSD17B1,inactive: -0.569
6,GGAGAUUCCAUAAGACAAUTT against ZNF114,inactive: -0.303
7,CACUCUUGUUUAUGGAACATT against NUAK1,inactive: -0.197
8,GCCGCAACAUGGAAGUACATT against MAPK8IP3,inactive: 0.734
9,GACCCAAACUUCGUGCUAATT against KCNH4,inactive: -0.769
10,CGAAGUCUACAAACUCGAUTT against CHST11,inactive: -0.275
11,CAGUUAUCAUUCUAGUAUUTT against ATP2B1,inactive: -0.459
12,GGACGAAGGACGUGCUGUUTT against SHC2,inactive: -0.207
13,GUGGUUGUCUAUGACAUUATT against RAB41,inactive: -0.534
14,GAUCUCUCCUGAUUUACCATT against GPR37,inactive: -0.0447
15,GGAAGUACCUGAGUGUGCATT against MTCH1,inactive: 0
16,GGAUCUCCCAGGUAUCAUUTT against DRG1,inactive: 0.336
17,GGUUCCUGGUGCAUCGAUATT against SORT1,inactive: -0.43
18,CCUGAAGAAAGACAAGAUATT against POLR3G,inactive: -0.485
19,CGGGUAAACUAUGAGCUGATT against ADCY2,inactive: 0.173
20,GGGAUAGCGAGACCACUAATT against HCK,inactive: -0.48
21,GGUCAGACUGUCAACCUAATT against ARHGAP12,inactive: 0.525
22,GCCCGCCCUUCCUAAGUUATT against ZNF787,inactive: -0.0628
23,CUGUUGAUUUGAUAGUUUATT against TK2,inactive: 0

row,Sequence,median seed-adjusted z-score
1,GGGCAACAGUUGAACACCATT against PDK4,inactive: -0.693
2,GGUGGUGGAUGUUUCCAAUTT against TLE3,inactive: -0.451
3,CGUAGUGAUUGGGAAGUGATT against EIF3D,inactive: 0.104
4,GCAUCGACCGGGUUUAUGATT against KARS,inactive: -0.152
5,AGGACAACUCCUACCUGUATT against PRKACG,inactive: 0
6,GUAUCAUGCCCAUCUGAAATT against ZMAT4,inactive: -0.0468
7,CGGCAAUCCUUACGGCUAATT against DSG4,inactive: -0.0211
8,GGUCUGCAUCUAAGACUAATT against LST-3TM12,inactive: -0.109
9,GAGCUAUAAUCAGACCUGUTT against ART5,inactive: -0.354
10,CGCUCCAAGAAAAAUGAAATT against DYNLRB1,inactive: -0.58
11,CAGUUUAGGUUCCUAAGUATT against PDXP,inactive: -0.302
12,CGAGGCUCAUGGUACGUCUTT against MSRB2,inactive: 0.373
13,CGAUUAGGACUGACAAUAATT against IFT57,active: -1.1
14,GGAUAGGUGUUCUUAAACATT against PPP4R1,inactive: -0.911
15,GGAUCGUAUUACUCCAUAUTT against PIK3R4,inactive: -0.502
16,ACGGAACUUUUGUGACAUUTT against PGLYRP3,inactive: -0.671
17,GCAUCAAUGUCAAGAACGATT against MYLC2PL,inactive: -0.7
18,GAGUCUAAAAGAAGUUGUATT against GOT1L1,inactive: -0.277
19,GGAGAACUCGUUCAAAUGUTT against ZXDA,inactive: -0.0748
20,GAAGCUAAAUUAAGAGCUATT against SSB,inactive: 0
21,CCAAGGUUUUGGAUAGCAATT against RHBDL2,inactive: 0.0701
22,CUCAAGGAGUUGCUACUCATT against SPDEF,inactive: -0.607
